Hit rate of the full screen: of about 53,000 sequences, about 3,700 (7%) were called active.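 How the source made its calls: active means gene knockdowns whose robust z-score for IL-1 alpha signal is at least 2 or at most -2, so actives lie on both sides; inactive means the rest.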 The list shows a part of the results.

This experiment can be described thus: Components of the Cytosolic LPS Sensing Pathway: Gene Identification via Genome-wide siRNA Screen.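 Further: robust z of the log signal after scaling to non-targeting control siRNA wells of the plate.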 The following applies: RAW264.7 macrophages, IL-1a HTRF, actives lie on both sides, screened at 100 nM (by protocol), cells primed 5 h with Pam3CSK4 first. The method in brief: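 Using IL-1a HTRF as read-out, the screen measured release from RAW264.7 cells after 48h siRNA knockdown (100 nM), 5 h Pam3CSK4 priming and 24 h cytosolic LipidA. Values were expressed relative to negative-control wells as robust z-scores.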
Turning to GGCAGAAAAGAUAGCAUCUTT against Cops4, the z-score was inactive: 0.413.

On to GCAUUGGUAACCAAAUCAUTT against Dram2, for which the z-score is inactive: 1.71.

Take GCACAUGCAGACAGUUACCTT against Kiss1r: the z-score was inactive: 1.37.

Turning to GGCCUUGAGACUAUCAAUGTT against Emilin3, the z-score is inactive: 1.1.

Consider GGCGACUUUUGCAUCGCUUTT against Spink2, for which the z-score is inactive: 1.53.

Turning to GGCCACAUGAGGAAUGACGTT against Slc20a2, the z-score is inactive: 1.08.

With GCCUGAAUUUAGUGUUAAGTT against Hnmt, the z-score was inactive: 1.72.

In the case of CCAACGAAGCCAAUAAAUGTT against Pmis2, the z-score is active: -2.12.

In the case of GGGCCCGAUGAAGCAAAAATT against Hnrnpr, the z-score was inactive: -1.49.

As for GCUGUUUUAUCUCCAAUGGTT against Araf, the z-score is inactive: 1.73.

As for GGACUAUGUCUUUGACAAUTT against Grhl1, the z-score is inactive: -0.166.

On to GGUCCCUGUAGAAAAACUGTT against Asrgl1, for which the z-score is inactive: -0.563.

Regarding “GGCUCCACAAACCUUCCUUTT against D830014E11Rik”, the z-score is inactive: -0.416.

As for GGGUAUCCUUUGGUGGUGUTT against Prss32, the z-score is inactive: 0.766.

“CAAGAAGGUCAUGUUAUUGTT against Olfr106-ps”: the z-score was inactive: 0.495.

For the sequence GGAGUUCAUUCUGGAUAUCTT against Matn2, the z-score was inactive: 1.24.

Consider GGAGUAUAUCCAAAGAAUUTT against Hook2, for which the z-score is inactive: 0.111.

On to GUCCCAGUACUUCUUGUUUTT against Vmn1r27, for which the z-score is inactive: 0.675.

As for GGAGACCUUUGCUCAUCUCTT against Hbb-bh1, the z-score is inactive: -1.08.

Consider GCUACGUUUUUUACCUCCATT against Bak1, for which the z-score is inactive: 0.0106.

In the case of GCAACCCUUUAAUGAAAAATT against Jazf1, the z-score was inactive: 0.379.

As for CCAGUACGAUUUCUCUCGATT against Camsap3, the z-score was inactive: -1.35.

In the case of GCAUCAGCUCACCUUUGUATT against Clec4a1, the z-score is inactive: 0.547.

As to GCACCCUUGAGAAAUCCAATT against Cfdp1, the z-score is inactive: -0.224.

With GGAAGUUAGUUUCGUUUUATT against Rprd1b, the z-score is active: 2.03.

For the sequence GGUUCUGUGUAUGGAUUAUTT against Fzd5, the z-score is inactive: -0.208.

Turning to GCCUAUGUAAAUAGUGCUGTT against Mt3, the z-score was inactive: 0.549.

In the case of GUCAGUGGGCUUCUCAGAUTT against Pxmp2, the z-score was inactive: 0.494.

As for GGUUAACAUCACUCUGUCUTT against Ntng1, the z-score was inactive: -1.02.

With GCGAGUGGACCUGUUUUACTT against Btc, the z-score was inactive: 1.6.

For the sequence GGCUGCUAACAAAGACAACTT against Ift172, the z-score was inactive: -0.0877.

Take GGCUAUCACACAGCAUAGATT against Rdh7: the z-score is inactive: 1.57.

In the case of GCCUUAGGUUGAUAGGAGGTT against Tas2r110, the z-score is inactive: -0.191.

Take GGCGAACGGUACUUAGACUTT against Etnppl: the z-score was inactive: 0.648.

On to GGAGGAAUACGUAUACUUCTT against Dipk1c, for which the z-score is active: 2.16.

As for GGAAAACUUAUACUCAGAATT against Vmn1r181, the z-score is inactive: -0.197.

As to GGUACAACUUUGUGACUUATT against Ercc8, the z-score was inactive: 1.04.

As for CCACGGUCUCUUAUUUAUGTT against Pim3, the z-score is inactive: 0.535.

CCUACACAACCGUGUUCAATT against Gtf3a: the z-score was inactive: -0.603.

Regarding GCUCGCCUGCAUUUCAUCATT against Pank4, the z-score was active: 3.3.

GGUUUAUUGACCAUCUAAUTT against Ttc4: the z-score was inactive: -0.0452.

In the case of CGUUUUUGUCUAGUUUGAATT against Macrod2, the z-score was inactive: -1.08.

GCAUGCGACUCUGUUCUCGTT against Gtf2a2: the z-score was inactive: -0.228.

GCCGCACAUGAACAGAACCTT against Phykpl: the z-score is inactive: 0.297.

In the case of CCGCAAAGUGAGCAAGGUGTT against Id1, the z-score is inactive: -0.63.

In the case of GGGCAAAAUAUGAAAUACATT against Pate6, the z-score is active: 2.92.

Take GGUCACAAUGGUUUAAGGATT against Tacr1: the z-score is inactive: -0.943.

In the case of GGAGGCACACCUGAAACAUTT against Cacna2d3, the z-score is inactive: -1.19.

Regarding GGGUGUUUGGUUGUGAUCUTT against Arhgap33, the z-score is active: -2.07.

As to GGCUUUCAAGAGCAAUCCCTT against Man2b2, the z-score is active: -2.21.

For GGACAAGGUAUUUUACGUCTT against Mars1, the z-score is inactive: -0.151.

Take GGAUUCAUGAUUAUCUUUCTT against Olfr790: the z-score was inactive: -0.138.

Regarding GGCUCGAGUUCAACCUAAUTT against Arih2, the z-score was inactive: 0.436.

In the case of CGGGAAUACGCUACGAACATT against Hoxa13, the z-score was inactive: 0.321.

Consider GGCAGAAUCCAGCUCAGUUTT against Retreg2, for which the z-score is inactive: -0.0202.

As to GGCUUCUACUGAAGAAUCCTT against Gdf9, the z-score is inactive: -0.218.

As for GCUGCACGGAAACAUGUUUTT against Sirt6, the z-score is inactive: 1.03.

As to “CCUCUUUUUCUCCUAUUUUTT against Olfr1165-ps”, the z-score was inactive: -0.941.

In the case of GGAGUUCAAAGACCCUCUGTT against Tmem97, the z-score is inactive: -0.758.

Regarding GGUGCUGACUGAGAAGGAGTT against Fdps, the z-score was inactive: -1.18.

Consider CCGGCUAAUACUGUUGUGGTT against Snrnp40, for which the z-score was inactive: -1.99.

For GGGCAAGAUGGUCAGUAGATT against Tpt1, the z-score was inactive: 0.627.

Consider GGCCGUUCCAAAAGAGACATT against Slc22a20, for which the z-score was inactive: -1.03.

GGAAGAAGAGAAGUUACAGTT against Spata24: the z-score was inactive: -0.506.

Turning to GGUUACAUUGCUCUCGUGCTT against Vmn1r66, the z-score was inactive: -0.255.

Consider GCCGUUUUAUGUGGCAGAATT against Slc35d3, for which the z-score was inactive: 0.141.

For the sequence GGAUUUCUGUGGAGAUGGGTT against Cchcr1, the z-score is inactive: 0.444.

In the case of GGAAAGUGUGUUCAUUAGUTT against Pla2g2d, the z-score is inactive: -0.268.

As to GGAGAGGUGUAAUGUAUUCTT against Gdpd4, the z-score is inactive: -1.89.

As for GGCCAUGGAAGCUGUUGCUTT against Pgam2, the z-score is inactive: -0.264.

Regarding CCACUGUCCCUAAGGUACUTT against Olfr161, the z-score is inactive: -0.292.

Regarding “GGAAACAUGGCAUCAAGACTT against 1110059G10Rik”, the z-score is inactive: 0.0576.

Regarding GCCGCUUAGUUCUGUUUUATT against Clcn5, the z-score was inactive: 0.273.

As to GCAGAUGCAAUUAUUACCCTT against Kcnmb1, the z-score was inactive: -0.792.

On to “GCUAUAGGCUUAAUGAAAATT against 4931406B18Rik”, for which the z-score is inactive: -0.325.

For GGUUGGUCAGACAAGGAUCTT against Cd99l2, the z-score is inactive: -0.913.

For GGGAGUUCUUGACCAAAUGTT against Katna1, the z-score is inactive: 1.82.

Consider GGUUAAGACCUUAAACAGATT against Prl4a1, for which the z-score was inactive: 0.0572.

For the sequence CCUCAGUUAUAGAUGAUCUTT against Rdh11, the z-score was inactive: 0.319.

As for “GGAAAACCCUAGCACCAUGTT against A430093F15Rik”, the z-score was inactive: -0.414.

On to GGGAAGAGUGGUGCAAUGATT against Olfr155, for which the z-score was inactive: 0.835.

Take GGCUUUGGUCAAGGAGAAGTT against Pias4: the z-score was inactive: -1.32.

For GGGAAACACCUGGGUGCUUTT against Ctrl, the z-score is inactive: -1.07.

For GCGGAUCUCCCUAAGAAUUTT against Ctsz, the z-score is inactive: 0.921.

As to GUAAAAGGAGAUGAAGACATT against Sly, the z-score is inactive: -0.686.

For CCAGGGUAUGUAAAUAUCUTT against Epha8, the z-score is inactive: -1.47.

On to GCACAAUUGGAAUUGUACATT against Ubqln2, for which the z-score is active: -2.18.

On to GGUCCACAAUGGCAUCAUATT against Elf4, for which the z-score was active: 2.13.

CCGAUCACUUUAUCUUCACTT against Lrrc42: the z-score is inactive: -0.0141.

With GGCUCGGUAUCGUUUUUCATT against Arl3, the z-score was inactive: 0.841.

In the case of GCAUGACGGUGUUAACUACTT against Jam3, the z-score was inactive: 0.433.

Take GGAUGGUAGGAUGUAGAUCTT against Tafa1: the z-score is inactive: -0.819.

Consider GGCACAGAGAACAAUACUUTT against Npy5r, for which the z-score is inactive: -0.128.

Regarding GGAAUUUGCUGAAUUGCUCTT against Ophn1, the z-score was inactive: 1.34.

For the sequence CCCUUUCAACCAUUAAGCUTT against Kcns2, the z-score was inactive: 0.243.

As for GGAAGAAGAUCAAGGAGAUTT against Myof, the z-score was inactive: -0.654.

Consider CCAUCAUAUCAGACCCUGGTT against Olfr733, for which the z-score was inactive: -0.222.

For GGCCAUUUCUUUCAUAGAUTT against Dusp6, the z-score was inactive: 0.509.

Regarding CCAACUCGGAUCAACUUAUTT against Nfia, the z-score is inactive: 1.36.

Take GGGAUCAACAUGAUAUUUUTT against Lrit1: the z-score is inactive: -0.903.

Regarding GCAAUGGCAUCAACCAUUCTT against Cbfa2t2, the z-score was inactive: 0.713.

In the case of GGAGACGUGGGAAAAGCUATT against Gucy1b2, the z-score was inactive: -1.93.

For GGUGAGACAUUUCAAGAAATT against Ndufb2, the z-score was inactive: 0.649.

Take GGCUUAUCGAUCGACAGUUTT against Nup155: the z-score was inactive: 0.442.

Consider CCUAUCUCGGUCAUUGGCATT against Slc25a37, for which the z-score was inactive: -1.43.

As for GGCCUCUUAUAUAGAAUAATT against Polr3f, the z-score is inactive: -0.753.

Values taken from PubChem BioAssay AID1508600 (Functional Genomics Laboratory (NCATS/FGL), 2020).
